In paper PMC10403538:
No constants are given. Whether binding was seen depends on the method and setting. A result given as binding can be weak or reduced; the word gives no strength. For part of these data: Binding seen in cells or lysates may run through a third protein. For part of these data: Sequences can lack the tags named with a protein. Blank lines part the entries; values can stand above or below the molecule they belong to.

Columns and labels:
pGBKT7-OsEIN2-C (rice) = molecular target: T1, pGBKT7-OsEIN2-C (rice) (UniProt Q0D8I9); assay: two-hybrid; yeast strain Y2H gold; prey in pGADT7, bait in pGBKT7; SD-Trp-Leu-His medium, 4 days at 30 °C
T1 sequence: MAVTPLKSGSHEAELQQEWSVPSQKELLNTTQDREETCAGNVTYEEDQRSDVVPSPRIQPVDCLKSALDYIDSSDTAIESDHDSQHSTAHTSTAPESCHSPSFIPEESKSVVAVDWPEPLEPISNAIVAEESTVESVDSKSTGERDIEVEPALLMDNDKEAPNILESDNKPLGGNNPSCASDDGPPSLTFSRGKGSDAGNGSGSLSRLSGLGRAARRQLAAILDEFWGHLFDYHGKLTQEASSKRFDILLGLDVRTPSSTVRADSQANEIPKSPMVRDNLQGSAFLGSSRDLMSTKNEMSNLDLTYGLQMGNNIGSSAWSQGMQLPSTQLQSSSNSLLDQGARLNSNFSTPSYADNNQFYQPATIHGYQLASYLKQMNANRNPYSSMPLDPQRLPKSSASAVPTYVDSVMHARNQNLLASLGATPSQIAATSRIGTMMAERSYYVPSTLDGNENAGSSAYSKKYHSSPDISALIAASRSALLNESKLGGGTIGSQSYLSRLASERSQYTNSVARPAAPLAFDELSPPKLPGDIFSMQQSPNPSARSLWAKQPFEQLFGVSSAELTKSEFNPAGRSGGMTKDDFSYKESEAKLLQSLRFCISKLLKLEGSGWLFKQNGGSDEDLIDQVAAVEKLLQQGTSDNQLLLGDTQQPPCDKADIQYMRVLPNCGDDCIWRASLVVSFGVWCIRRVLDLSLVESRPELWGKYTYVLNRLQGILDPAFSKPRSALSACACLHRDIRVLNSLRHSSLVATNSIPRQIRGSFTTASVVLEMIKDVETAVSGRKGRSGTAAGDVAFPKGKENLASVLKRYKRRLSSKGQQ

OsEIN2-C-cYFP (rice) = molecular target: T2, OsEIN2-C-cYFP (rice) (UniProt Q0D8I9); assay: split reporter; BiFC, nYFP and cYFP fusions co-expressed in rice protoplasts of Osein2 mhz9 double mutant; yellow fluorescence by microscopy
T2 sequence: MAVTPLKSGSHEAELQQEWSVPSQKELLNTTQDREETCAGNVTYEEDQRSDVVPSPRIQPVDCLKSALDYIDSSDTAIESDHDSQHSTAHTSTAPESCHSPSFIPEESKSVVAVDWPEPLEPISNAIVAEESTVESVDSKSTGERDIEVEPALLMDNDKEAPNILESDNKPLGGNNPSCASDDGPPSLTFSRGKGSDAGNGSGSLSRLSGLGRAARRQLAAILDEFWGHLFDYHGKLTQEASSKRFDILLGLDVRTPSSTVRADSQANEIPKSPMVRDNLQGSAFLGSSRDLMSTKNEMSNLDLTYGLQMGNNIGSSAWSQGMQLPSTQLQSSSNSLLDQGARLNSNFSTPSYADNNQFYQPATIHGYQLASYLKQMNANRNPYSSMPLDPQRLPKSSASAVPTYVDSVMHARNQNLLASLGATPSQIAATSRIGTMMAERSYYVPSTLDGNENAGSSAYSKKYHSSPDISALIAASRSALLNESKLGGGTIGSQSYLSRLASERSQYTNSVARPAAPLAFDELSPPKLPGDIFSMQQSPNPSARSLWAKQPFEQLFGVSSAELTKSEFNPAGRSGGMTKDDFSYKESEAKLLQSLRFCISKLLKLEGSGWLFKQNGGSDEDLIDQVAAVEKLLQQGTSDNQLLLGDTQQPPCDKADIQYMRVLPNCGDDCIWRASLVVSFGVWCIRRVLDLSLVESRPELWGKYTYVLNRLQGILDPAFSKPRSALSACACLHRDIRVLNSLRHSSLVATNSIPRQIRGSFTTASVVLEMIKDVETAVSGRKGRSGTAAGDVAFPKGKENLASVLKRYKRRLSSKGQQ

MHZ9-3×Myc (rice) = assay: co-IP; co-expressed in rice protoplasts, 16 h in the dark; total proteins immunoprecipitated with anti-c-Myc affinity gel, 1 h at 4 °C; IP buffer 50 mM TRIS pH 7.4, 150 mM NaCl, 0.5 mM EDTA, 0.5% NP40; GFP-Myc as negative control

binding (pGBKT7-OsEIN2-C (rice)): binds
Molecule: AD-MHZ9 (rice)

binding (OsEIN2-C-cYFP (rice)): binds
Molecule: MHZ9-nYFP (rice)

binding (MHZ9-3×Myc (rice)): binds
B1: OsEIN2-C-3×FLAG (domain or fragment, UniProt Q0D8I9 463-1281)
chain: MAVTPLKSGSHEAELQQEWSVPSQKELLNTTQDREETCAGNVTYEEDQRSDVVPSPRIQPVDCLKSALDYIDSSDTAIESDHDSQHSTAHTSTAPESCHSPSFIPEESKSVVAVDWPEPLEPISNAIVAEESTVESVDSKSTGERDIEVEPALLMDNDKEAPNILESDNKPLGGNNPSCASDDGPPSLTFSRGKGSDAGNGSGSLSRLSGLGRAARRQLAAILDEFWGHLFDYHGKLTQEASSKRFDILLGLDVRTPSSTVRADSQANEIPKSPMVRDNLQGSAFLGSSRDLMSTKNEMSNLDLTYGLQMGNNIGSSAWSQGMQLPSTQLQSSSNSLLDQGARLNSNFSTPSYADNNQFYQPATIHGYQLASYLKQMNANRNPYSSMPLDPQRLPKSSASAVPTYVDSVMHARNQNLLASLGATPSQIAATSRIGTMMAERSYYVPSTLDGNENAGSSAYSKKYHSSPDISALIAASRSALLNESKLGGGTIGSQSYLSRLASERSQYTNSVARPAAPLAFDELSPPKLPGDIFSMQQSPNPSARSLWAKQPFEQLFGVSSAELTKSEFNPAGRSGGMTKDDFSYKESEAKLLQSLRFCISKLLKLEGSGWLFKQNGGSDEDLIDQVAAVEKLLQQGTSDNQLLLGDTQQPPCDKADIQYMRVLPNCGDDCIWRASLVVSFGVWCIRRVLDLSLVESRPELWGKYTYVLNRLQGILDPAFSKPRSALSACACLHRDIRVLNSLRHSSLVATNSIPRQIRGSFTTASVVLEMIKDVETAVSGRKGRSGTAAGDVAFPKGKENLASVLKRYKRRLSSKGQQ
